Reference: the supplement of paper PMC6411743
± gives the standard deviation of the averaged measurements. Only a part is listed here, and it is no random draw.

The chains behind the UniProt entries cited, without tags or fusion partners. Where a name states a change or a piece, a line headed by the entry shows the natural chain unless it says otherwise.
UniProt Q9P2M7: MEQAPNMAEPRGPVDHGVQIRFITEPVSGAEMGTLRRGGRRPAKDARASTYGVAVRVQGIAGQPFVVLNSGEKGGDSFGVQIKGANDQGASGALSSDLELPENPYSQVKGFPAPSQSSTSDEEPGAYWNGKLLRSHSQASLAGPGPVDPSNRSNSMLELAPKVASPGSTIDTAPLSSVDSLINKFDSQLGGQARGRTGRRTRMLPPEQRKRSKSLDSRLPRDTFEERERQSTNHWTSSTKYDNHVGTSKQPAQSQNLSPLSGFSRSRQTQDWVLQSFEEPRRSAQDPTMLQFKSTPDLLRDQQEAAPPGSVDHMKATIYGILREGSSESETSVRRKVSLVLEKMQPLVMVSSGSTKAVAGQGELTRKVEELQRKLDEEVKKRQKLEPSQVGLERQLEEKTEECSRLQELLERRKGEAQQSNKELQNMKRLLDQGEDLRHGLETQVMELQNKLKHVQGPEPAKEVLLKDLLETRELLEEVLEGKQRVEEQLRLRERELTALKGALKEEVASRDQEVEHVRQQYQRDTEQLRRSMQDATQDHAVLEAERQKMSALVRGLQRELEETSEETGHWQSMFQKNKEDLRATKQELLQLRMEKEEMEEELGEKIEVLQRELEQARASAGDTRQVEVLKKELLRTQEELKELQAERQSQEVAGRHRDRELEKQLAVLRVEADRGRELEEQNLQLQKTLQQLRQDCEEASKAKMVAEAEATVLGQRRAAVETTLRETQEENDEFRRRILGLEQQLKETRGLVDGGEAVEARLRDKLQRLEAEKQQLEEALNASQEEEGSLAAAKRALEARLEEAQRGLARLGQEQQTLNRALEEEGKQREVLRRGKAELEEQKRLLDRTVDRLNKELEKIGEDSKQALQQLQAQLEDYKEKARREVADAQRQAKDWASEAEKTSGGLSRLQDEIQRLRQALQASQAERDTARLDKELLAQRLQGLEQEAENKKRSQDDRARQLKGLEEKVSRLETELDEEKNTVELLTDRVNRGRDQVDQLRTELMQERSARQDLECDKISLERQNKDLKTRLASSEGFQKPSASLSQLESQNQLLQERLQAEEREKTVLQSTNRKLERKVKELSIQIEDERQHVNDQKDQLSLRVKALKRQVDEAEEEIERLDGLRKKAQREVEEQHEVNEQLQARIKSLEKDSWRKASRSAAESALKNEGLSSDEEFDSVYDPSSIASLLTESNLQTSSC
UniProt Q9P289: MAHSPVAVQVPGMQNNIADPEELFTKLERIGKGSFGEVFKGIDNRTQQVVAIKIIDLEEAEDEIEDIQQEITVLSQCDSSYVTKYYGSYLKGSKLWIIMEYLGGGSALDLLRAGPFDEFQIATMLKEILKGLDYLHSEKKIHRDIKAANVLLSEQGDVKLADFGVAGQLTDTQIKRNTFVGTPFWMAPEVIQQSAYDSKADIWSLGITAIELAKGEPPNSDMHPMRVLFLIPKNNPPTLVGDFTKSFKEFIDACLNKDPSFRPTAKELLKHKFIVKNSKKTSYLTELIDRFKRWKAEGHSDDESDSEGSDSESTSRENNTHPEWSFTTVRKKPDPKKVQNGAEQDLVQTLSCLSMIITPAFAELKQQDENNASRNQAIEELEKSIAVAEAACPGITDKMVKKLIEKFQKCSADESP
UniProt Q9UNL2: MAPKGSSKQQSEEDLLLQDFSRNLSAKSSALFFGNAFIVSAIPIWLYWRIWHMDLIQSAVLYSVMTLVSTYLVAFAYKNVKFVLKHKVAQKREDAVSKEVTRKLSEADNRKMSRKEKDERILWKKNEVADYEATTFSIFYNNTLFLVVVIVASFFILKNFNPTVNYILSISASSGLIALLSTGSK
UniProt Q9UL03, whole entry: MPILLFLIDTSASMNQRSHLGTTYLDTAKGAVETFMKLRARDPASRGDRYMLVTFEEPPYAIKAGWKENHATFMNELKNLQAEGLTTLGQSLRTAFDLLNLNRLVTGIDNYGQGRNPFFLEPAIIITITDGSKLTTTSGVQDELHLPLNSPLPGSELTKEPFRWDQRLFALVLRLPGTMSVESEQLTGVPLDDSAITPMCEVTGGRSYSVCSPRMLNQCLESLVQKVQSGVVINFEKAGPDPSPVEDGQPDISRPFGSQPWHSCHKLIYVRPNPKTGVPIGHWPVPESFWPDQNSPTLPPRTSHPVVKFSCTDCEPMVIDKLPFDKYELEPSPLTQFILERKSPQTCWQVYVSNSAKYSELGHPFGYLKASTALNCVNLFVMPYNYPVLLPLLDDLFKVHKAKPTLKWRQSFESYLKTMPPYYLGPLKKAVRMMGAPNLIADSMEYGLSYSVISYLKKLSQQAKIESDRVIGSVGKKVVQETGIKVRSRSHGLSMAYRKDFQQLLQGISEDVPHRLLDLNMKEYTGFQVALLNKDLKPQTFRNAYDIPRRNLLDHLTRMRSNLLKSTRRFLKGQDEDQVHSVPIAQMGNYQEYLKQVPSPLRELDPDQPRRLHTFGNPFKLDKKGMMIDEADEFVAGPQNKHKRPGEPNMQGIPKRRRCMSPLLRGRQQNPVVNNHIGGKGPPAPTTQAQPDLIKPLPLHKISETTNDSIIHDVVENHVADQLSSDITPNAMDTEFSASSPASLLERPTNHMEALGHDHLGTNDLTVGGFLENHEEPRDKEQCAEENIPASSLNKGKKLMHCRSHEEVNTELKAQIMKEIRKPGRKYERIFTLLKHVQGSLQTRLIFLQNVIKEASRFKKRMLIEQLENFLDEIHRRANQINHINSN
UniProt Q53GS9: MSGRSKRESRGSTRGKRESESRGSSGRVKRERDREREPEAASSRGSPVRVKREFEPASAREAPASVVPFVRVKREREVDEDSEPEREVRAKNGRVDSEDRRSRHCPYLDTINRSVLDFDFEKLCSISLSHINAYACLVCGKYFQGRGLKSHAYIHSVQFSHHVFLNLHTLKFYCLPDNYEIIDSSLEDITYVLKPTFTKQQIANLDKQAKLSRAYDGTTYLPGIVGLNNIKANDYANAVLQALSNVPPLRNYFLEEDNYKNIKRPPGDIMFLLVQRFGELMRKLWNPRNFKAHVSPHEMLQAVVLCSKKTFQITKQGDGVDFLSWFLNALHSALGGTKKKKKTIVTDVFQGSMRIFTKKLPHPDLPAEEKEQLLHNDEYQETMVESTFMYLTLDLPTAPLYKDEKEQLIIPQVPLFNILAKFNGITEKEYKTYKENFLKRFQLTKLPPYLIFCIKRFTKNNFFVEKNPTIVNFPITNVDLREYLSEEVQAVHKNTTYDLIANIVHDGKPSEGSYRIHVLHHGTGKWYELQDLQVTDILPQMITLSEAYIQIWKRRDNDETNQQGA
UniProt P34913, whole entry: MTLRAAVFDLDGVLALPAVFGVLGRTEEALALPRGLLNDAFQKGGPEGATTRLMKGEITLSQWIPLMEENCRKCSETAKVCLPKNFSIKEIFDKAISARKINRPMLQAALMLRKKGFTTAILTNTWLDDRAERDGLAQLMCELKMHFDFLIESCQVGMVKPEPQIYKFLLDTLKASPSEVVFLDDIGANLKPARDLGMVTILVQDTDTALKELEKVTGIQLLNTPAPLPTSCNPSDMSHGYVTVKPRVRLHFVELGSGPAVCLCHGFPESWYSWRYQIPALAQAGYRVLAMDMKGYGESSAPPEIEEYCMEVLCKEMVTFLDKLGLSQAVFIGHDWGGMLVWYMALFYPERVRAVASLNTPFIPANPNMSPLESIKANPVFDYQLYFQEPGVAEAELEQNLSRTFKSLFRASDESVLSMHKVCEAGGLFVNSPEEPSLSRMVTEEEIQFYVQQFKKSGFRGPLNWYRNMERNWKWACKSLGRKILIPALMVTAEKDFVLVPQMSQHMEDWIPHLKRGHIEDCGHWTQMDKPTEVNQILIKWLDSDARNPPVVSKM
UniProt P53801: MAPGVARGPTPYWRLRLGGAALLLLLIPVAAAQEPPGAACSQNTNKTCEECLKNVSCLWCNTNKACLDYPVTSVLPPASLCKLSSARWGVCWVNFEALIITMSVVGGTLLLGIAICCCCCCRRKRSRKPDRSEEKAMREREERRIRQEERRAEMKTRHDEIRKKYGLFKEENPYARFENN
UniProt Q9UKG9: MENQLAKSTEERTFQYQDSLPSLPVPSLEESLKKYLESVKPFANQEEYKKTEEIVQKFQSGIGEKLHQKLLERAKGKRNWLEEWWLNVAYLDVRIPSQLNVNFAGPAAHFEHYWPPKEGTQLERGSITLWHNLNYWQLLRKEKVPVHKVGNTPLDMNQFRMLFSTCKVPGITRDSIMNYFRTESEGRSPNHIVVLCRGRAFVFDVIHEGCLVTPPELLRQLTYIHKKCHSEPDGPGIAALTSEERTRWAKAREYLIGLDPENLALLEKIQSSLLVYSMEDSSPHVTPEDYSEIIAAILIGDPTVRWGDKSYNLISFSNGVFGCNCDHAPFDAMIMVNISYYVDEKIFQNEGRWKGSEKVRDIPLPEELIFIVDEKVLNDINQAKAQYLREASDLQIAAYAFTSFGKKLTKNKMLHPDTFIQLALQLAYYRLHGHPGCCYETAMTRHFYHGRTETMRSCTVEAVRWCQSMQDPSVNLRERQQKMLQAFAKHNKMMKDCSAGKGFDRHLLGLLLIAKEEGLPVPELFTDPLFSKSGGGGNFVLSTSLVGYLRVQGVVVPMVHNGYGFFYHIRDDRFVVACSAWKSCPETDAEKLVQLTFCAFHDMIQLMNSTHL
UniProt A3KMH1: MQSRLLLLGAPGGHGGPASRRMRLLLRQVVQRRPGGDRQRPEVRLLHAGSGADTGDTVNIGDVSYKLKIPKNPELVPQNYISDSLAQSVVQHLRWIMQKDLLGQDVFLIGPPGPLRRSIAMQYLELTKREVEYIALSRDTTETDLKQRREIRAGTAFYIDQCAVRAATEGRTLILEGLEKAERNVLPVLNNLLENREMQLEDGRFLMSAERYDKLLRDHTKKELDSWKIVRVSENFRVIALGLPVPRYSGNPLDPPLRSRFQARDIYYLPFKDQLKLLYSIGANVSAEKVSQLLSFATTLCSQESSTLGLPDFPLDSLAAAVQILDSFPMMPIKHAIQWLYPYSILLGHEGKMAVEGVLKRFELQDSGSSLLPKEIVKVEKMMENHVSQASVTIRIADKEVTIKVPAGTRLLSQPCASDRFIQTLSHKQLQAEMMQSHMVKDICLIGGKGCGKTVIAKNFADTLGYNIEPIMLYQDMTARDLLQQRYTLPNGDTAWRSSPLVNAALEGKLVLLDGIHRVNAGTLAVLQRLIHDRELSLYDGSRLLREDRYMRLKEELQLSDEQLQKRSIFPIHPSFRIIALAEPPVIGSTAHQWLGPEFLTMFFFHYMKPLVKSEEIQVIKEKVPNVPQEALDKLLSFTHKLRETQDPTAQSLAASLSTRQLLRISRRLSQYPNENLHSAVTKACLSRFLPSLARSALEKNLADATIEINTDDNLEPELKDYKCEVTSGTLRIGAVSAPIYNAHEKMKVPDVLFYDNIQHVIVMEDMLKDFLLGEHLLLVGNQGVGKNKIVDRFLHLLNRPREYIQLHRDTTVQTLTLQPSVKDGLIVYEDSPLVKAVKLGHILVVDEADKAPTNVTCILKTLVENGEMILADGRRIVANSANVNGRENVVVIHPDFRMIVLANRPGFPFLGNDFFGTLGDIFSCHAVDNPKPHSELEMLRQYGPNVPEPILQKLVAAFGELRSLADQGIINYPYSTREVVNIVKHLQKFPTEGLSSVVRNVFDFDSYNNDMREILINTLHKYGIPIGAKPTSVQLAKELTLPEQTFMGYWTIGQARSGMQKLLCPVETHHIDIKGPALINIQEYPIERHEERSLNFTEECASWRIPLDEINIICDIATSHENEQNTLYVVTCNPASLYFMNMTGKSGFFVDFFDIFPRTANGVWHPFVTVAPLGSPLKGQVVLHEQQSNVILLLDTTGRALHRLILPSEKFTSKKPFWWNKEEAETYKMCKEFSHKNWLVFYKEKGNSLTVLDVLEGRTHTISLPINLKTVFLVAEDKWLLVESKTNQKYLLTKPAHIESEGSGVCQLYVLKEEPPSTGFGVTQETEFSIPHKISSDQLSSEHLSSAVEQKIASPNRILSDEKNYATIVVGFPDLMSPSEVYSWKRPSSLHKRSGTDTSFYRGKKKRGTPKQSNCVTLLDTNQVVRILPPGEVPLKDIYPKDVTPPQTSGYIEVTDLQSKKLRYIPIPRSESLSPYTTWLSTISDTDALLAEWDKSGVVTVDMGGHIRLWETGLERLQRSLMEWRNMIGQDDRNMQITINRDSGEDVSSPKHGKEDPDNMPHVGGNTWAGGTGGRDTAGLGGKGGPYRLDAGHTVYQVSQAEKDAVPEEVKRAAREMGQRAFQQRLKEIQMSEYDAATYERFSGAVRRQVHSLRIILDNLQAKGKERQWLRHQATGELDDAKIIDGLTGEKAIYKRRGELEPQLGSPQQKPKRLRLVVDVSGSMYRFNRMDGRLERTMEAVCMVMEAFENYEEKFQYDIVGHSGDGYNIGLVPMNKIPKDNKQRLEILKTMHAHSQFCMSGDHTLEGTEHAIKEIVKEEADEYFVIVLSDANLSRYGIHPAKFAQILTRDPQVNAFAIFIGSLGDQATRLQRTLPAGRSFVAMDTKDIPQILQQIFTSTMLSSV

Compound: Nc1ncnc2c1ncn2[C@@H]1O[C@H](COP(=O)(O)OP(=O)(O)NP(=O)(O)O)[C@@H](O)[C@H]1O [adenylyl imidodiphosphate]
Assay: NP40-soluble protein abundance relative to vehicle (solubility fold change) (ratio); higher = more soluble protein in presence of AMP-PNP
In short: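 In three independent experiments, Jurkat crude lysate made by Dounce homogenisation was treated for 10 min at room temperature and then 3 min at 37 °C with eight concentrations ranging from 0.1 to 10 mM. It was then solubilised with 0.8% NP40 plus benzonase for 60 min at 4 °C and ultracentrifuged. The supernatant was TMT-labelled for LC-MS/MS, and each value is the fold change against the detergent-processed vehicle for the same replicate, using vsn-normalised intensities.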

Row | Target | NP40-soluble protein abundance (concentration: 1mM) | NP40-soluble protein abundance (concentration: 2mM) | NP40-soluble protein abundance (concentration: 4mM) | NP40-soluble protein abundance (concentration: 6mM) | NP40-soluble protein abundance (concentration: 8mM) | NP40-soluble protein abundance (concentration: 10mM)
1 | A6NMT1 and related entries (UniProt Q9BY41) | 1 ± 0.011 | 0.976 ± 0.034 | 0.9816 ± 0.0018 | 0.973 ± 0.021 | 0.984 ± 0.012 | 0.977 ± 0.024
2 | B8ZZC8 and related entries (UniProt Q9NRN9) | 0.998 ± 0.025 | 0.981 ± 0.056 | 1.025 ± 0.0036 | 0.9881 ± 0.0068 | 1.02 ± 0.057 | 0.997 ± 0.067
3 | A6PVU7 and related entries (UniProt Q9P2M7) | 1.07 ± 0.019 | 1.1 ± 0.077 | 1.07 ± 0.027 | 1.033 ± 0.0023 | 1.02 ± 0.032 | 1.06 ± 0.04
4 | B5MCN7 and related entries (UniProt Q15788) | 0.977 ± 0.043 | 0.988 ± 0.018 | 0.994 ± 0.024 | 0.983 ± 0.032 | 0.982 ± 0.035 | 0.982 ± 0.024
5 | B8ZZQ6 and related entries (UniProt P06454) | 1.05 ± 0.12 | 1.04 ± 0.052 | 0.991 ± 0.088 | 0.999 ± 0.13 | 0.919 ± 0.064 | 1.01 ± 0.14
6 | B4E0Y9 and related entries (UniProt Q9P289) | 0.999 ± 0.019 | 1.03 ± 0.059 | 1.01 ± 0.034 | 1.05 ± 0.036 | 1.01 ± 0.045 | 1.06 ± 0.039
7 | C9JA28 and related entries (UniProt Q9UNL2) | 1.01 ± 0.033 | 0.99 ± 0.042 | 0.991 ± 0.02 | 1.05 ± 0.016 | 1.04 ± 0.015 | 1.03 ± 0.019
8 | C9IZL5 and related entries (UniProt O00189) | 0.976 ± 0.013 | 0.931 ± 0.041 | 0.993 ± 0.027 | 0.983 ± 0.02 | 1.03 ± 0.02 | 1.02 ± 0.043
9 | B1AH77 and related entries (UniProt P15153) | 1.26 ± 0.38 | 0.938 ± 0.086 | 0.972 ± 0.072 | 0.972 ± 0.064 | 0.947 ± 0.0097 | 0.917 ± 0.027
10 | C9J6N9 and related entries (UniProt Q92890) | 0.9726 ± 0.0078 | 0.962 ± 0.019 | 0.965 ± 0.029 | 1 ± 0.034 | 1.02 ± 0.041 | 1 ± 0.019
11 | B3KQH5 and related entries (UniProt Q9UL03) | 1 ± 0.035 | 0.997 ± 0.043 | 1.03 ± 0.041 | 1.05 ± 0.072 | 1.05 ± 0.057 | 1.06 ± 0.068
12 | C9J0I9 and related entries (UniProt Q86WB0) | 1.01 ± 0.011 | 1.02 ± 0.043 | 1.01 ± 0.035 | 1.02 ± 0.024 | 1.01 ± 0.071 | 1.01 ± 0.049
13 | E5RI87 and related entries (UniProt Q86XS8) | 1.02 ± 0.011 | 1 ± 0.012 | 1.03 ± 0.035 | 1.05 ± 0.019 | 1.11 ± 0.034 | 1.03 ± 0.061
14 | C9IZN5 and related entries (UniProt Q16718) | 0.992 ± 0.064 | 0.934 ± 0.027 | 1.02 ± 0.051 | 0.893 ± 0.032 | 0.916 ± 0.038 | 0.803 ± 0.035
15 | B9A018 and related entries (UniProt Q53GS9) | 0.976 ± 0.024 | 0.918 ± 0.084 | 0.976 ± 0.039 | 1.06 ± 0.021 | 1.108 ± 0.0024 | 1.07 ± 0.045
16 | E2QRD4 and related entries (UniProt Q6ZRQ5) | 0.9635 ± 0.0089 | 0.994 ± 0.0094 | 1.01 ± 0.05 | 0.9939 ± 0.0036 | 1.0175 ± 0.00054 | 1.01 ± 0.011
17 | B9EGA3 and related entries (UniProt Q92925) | 0.971 ± 0.034 | 0.959 ± 0.03 | 0.984 ± 0.059 | 1.04 ± 0.032 | 1.06 ± 0.05 | 1.07 ± 0.14
18 | C9J2V2 and related entries (UniProt Q9Y6K9) | 1.01 ± 0.032 | 1.1 ± 0.037 | 1.03 ± 0.035 | 0.989 ± 0.032 | 0.989 ± 0.07 | 0.99 ± 0.031
19 | B4DVL2 and related entries (UniProt Q02083) | 0.993 ± 0.019 | 0.997 ± 0.013 | 1 ± 0.021 | 1.02 ± 0.011 | 1 ± 0.033 | 0.9934 ± 0.0063
20 | D6RIF6 and related entries (UniProt Q9P270) | 1.01 ± 0.028 | 1.08 ± 0.068 | 1.085 ± 0.0081 | 1.07 ± 0.044 | 1.04 ± 0.054 | 1.09 ± 0.016
21 | C9JZB0 and related entries (UniProt Q9BT40) | 0.985 ± 0.024 | 0.934 ± 0.045 | 0.9613 ± 0.0062 | 0.96 ± 0.015 | 1 ± 0.025 | 0.974 ± 0.019
22 | B4DXZ6 and related entries (UniProt P51114) | 1.12 ± 0.029 | 1.17 ± 0.039 | 1.3 ± 0.055 | 1.43 ± 0.15 | 1.55 ± 0.2 | 1.62 ± 0.2
23 | MYO1G (UniProt B0I1T2) | 1.14 ± 0.074 | 1.12 ± 0.11 | 1.27 ± 0.22 | 1.34 ± 0.3 | 1.44 ± 0.43 | 1.47 ± 0.46
24 | E5RFU2 and related entries (UniProt P34913) | 0.991 ± 0.019 | 0.96 ± 0.062 | 0.975 ± 0.037 | 0.941 ± 0.034 | 0.939 ± 0.023 | 0.927 ± 0.029
25 | A6NCE7 and related entries (UniProt Q9GZQ8+H3BTL1+A6NCE7) | 1.01 ± 0.038 | 1.018 ± 0.0085 | 1.05 ± 0.038 | 0.982 ± 0.028 | 1.02 ± 0.028 | 1.02 ± 0.049
26 | A8MZH8 and related entries (UniProt P53801) | 1.017 ± 0.0061 | 1.09 ± 0.13 | 1.05 ± 0.018 | 1.07 ± 0.062 | 1.11 ± 0.058 | 1.09 ± 0.033
27 | C9J3D7 and related entries (UniProt Q9UKG9) | 0.964 ± 0.042 | 0.9 ± 0.076 | 0.976 ± 0.029 | 0.9294 ± 0.0064 | 0.931 ± 0.022 | 0.93 ± 0.01
28 | B4DV51 and related entries (UniProt P62826) | 0.98 ± 0.046 | 0.956 ± 0.011 | 0.977 ± 0.076 | 1.1 ± 0.13 | 1.1 ± 0.065 | 1.12 ± 0.051
29 | UniProt A3KMH1 and related entries | 0.93 ± 0.024 | 0.858 ± 0.098 | 0.933 ± 0.025 | 0.874 ± 0.035 | 0.879 ± 0.017 | 0.8557 ± 0.0057
30 | A6NF51 and related entries (UniProt O95861) | 0.996 ± 0.05 | 0.978 ± 0.077 | 1 ± 0.1 | 1.12 ± 0.1 | 1.13 ± 0.11 | 1.14 ± 0.1
